# Measurements: patent US20240201191A1, “CITRULLINATED PROTEINS AS BIOMARKERS AND THERAPY TARGETS FOR CANCER” (BOARD OF REGENTS, THE UNIVERSITY OF TEXAS SYSTEM, priority 2022, published 2024)
# “Also recorded” adds a separate entry of the source.
# Tested on: cancer cell surface proteins (TACSTD2, EGFR, ERBB2 and others)
# Test: Cancer cell surface protein citrullination sites by biotin labeling and mass spectrometry
# Set-up: species or system human
# Conditions: mass spectrometry
# [1] = peptide of CEACAM5, trypsin digest
# [2] = peptide of HSP90AA1 (HSP90), trypsin digest
# [3] = peptide of NECTIN4, trypsin digest
# [4] = peptide of EGFR, trypsin digest
# [5] = peptide of IGF1R, trypsin digest
# [6] = peptide of CD22, trypsin digest
# [7] = peptide of ERBB2, trypsin digest
# [8] = peptide of TACSTD2 (TROP2), trypsin digest
# [9] = peptide of CD44 (CSPG8), trypsin digest
substance,measurement,setting,value
SEQ ID NO: 174 (VDGNRQIIGYVIGTQQATPGPAYSGR; MOD_RES (5)..(5) Citrullinated Arginine; MOD_RES (26)..(26) Citrullinated Arginine),Modification (citrullination site identified),[1],R5(Cit.);; also recorded: R26(Cit.)
SEQ ID NO: 196 (LDQEVQEETQGRFRLLGDPSR; MOD_RES (14)..(14) Citrullinated Arginine; MOD_RES (21)..(21) Citrullinated Arginine),Modification (citrullination site identified),"peptide of CD33, trypsin digest",R14(Cit.);; also recorded: R21(Cit.)
SEQ ID NO: 178 (QDRTLTIVDTGIGMTK; MOD_RES (3)..(3) Citrullinated Arginine),Modification (citrullination site identified),[2],R3(Cit.)
SEQ ID NO: 170 (VDGDTLGFPPLTTEHSGIYVCHVSNEFSSR; MOD_RES (30)..(30) Citrullinated Arginine),Modification (citrullination site identified),[3],R30(Cit.)
SEQ ID NO: 183 (GVVDSEDLPLNISR; MOD_RES (14)..(14) Citrullinated Arginine),Modification (citrullination site identified),[2],R14(Cit.)
SEQ ID NO: 155 (YSFGATCVKKCPRNYVVTDHGSCVR; MOD_RES (13)..(13) Citrullinated Arginine; MOD_RES (25)..(25) Citrullinated Arginine),Modification (citrullination site identified),[4],R13(Cit.);; also recorded: R25(Cit.)
SEQ ID NO: 192 (GRQSKGDINTRNNGER; MOD_RES (11)..(11) Citrullinated Arginine; MOD_RES (16)..(16) Citrullinated Arginine),Modification (citrullination site identified),[5],R11(Cit.);; also recorded: R16(Cit.)
SEQ ID NO: 168 (ITHILHVSFLAEASVR; MOD_RES (16)..(16) Citrullinated Arginine),Modification (citrullination site identified),[3],R16(Cit.)
SEQ ID NO: 153 (FSNNPALCNVESIQWR; MOD_RES (16)..(16) Citrullinated Arginine),Modification (citrullination site identified),[4],R16(Cit.)
SEQ ID NO: 195 (YCCQVSNDVGPGR; MOD_RES (13)..(13) Citrullinated Arginine),Modification (citrullination site identified),[6],R13(Cit.)
SEQ ID NO: 190 (VAGLESLGDLFPNLTVIRGWK; MOD_RES (18)..(18) Citrullinated Arginine),Modification (citrullination site identified),[5],R18(Cit.)
SEQ ID NO: 167 (SMNGQPLTCVVSHPGLLQDQR; MOD_RES (21)..(21) Citrullinated Arginine),Modification (citrullination site identified),[3],R21(Cit.)
SEQ ID NO: 193 (YGSQVEDQRECVSRQEYR; MOD_RES (9)..(9) Citrullinated Arginine; MOD_RES (18)..(18) Citrullinated Arginine),Modification (citrullination site identified),[5],R9(Cit.);; also recorded: R18(Cit.)
SEQ ID NO: 191 (MEEVTGTKGRQSKGDINTR; MOD_RES (10)..(10) Citrullinated Arginine; MOD_RES (19)..(19) Citrullinated Arginine),Modification (citrullination site identified),[5],R10(Cit.);; also recorded: R19(Cit.)
SEQ ID NO: 165 (GDSGEQVGQVAWAR; MOD_RES (14)..(14) Citrullinated Arginine),Modification (citrullination site identified),[3],R14(Cit.)
SEQ ID NO: 159 (YTFGASCVTACPYNYLSTDVGSCTLVCPLHNQEVTAEDGTQR; MOD_RES (42)..(42) Citrullinated Arginine),Modification (citrullination site identified),[7],R42(Cit.)
SEQ ID NO: 145 (HRPTAGAFNHSDLDAELR; MOD_RES (2)..(2) Citrullinated Arginine; MOD_RES (18)..(18) Citrullinated Arginine),Modification (citrullination site identified),[8],R2(Cit.);; also recorded: R18(Cit.)
SEQ ID NO: 177 (RSDSVILNVLYGPDAPTISPLNTSYR; MOD_RES (1)..(1) Citrullinated Arginine; MOD_RES (26)..(26) Citrullinated Arginine),Modification (citrullination site identified),[1],R1(Cit.);; also recorded: R26(Cit.)
SEQ ID NO: 147 (AAGDVDIGDAAYYFER; MOD_RES (16)..(16) Citrullinated Arginine),Modification (citrullination site identified),[8],R16(Cit.)
SEQ ID NO: 194 (SPLSTLTVYYSPETIGR; MOD_RES (17)..(17) Citrullinated Arginine),Modification (citrullination site identified),[6],R17(Cit.)
SEQ ID NO: 166 (NAVQADEGEYECR; MOD_RES (13)..(13) Citrullinated Arginine),Modification (citrullination site identified),[3],R13(Cit.)
SEQ ID NO: 150 (LTQLGTFEDHFLSLQR; MOD_RES (16)..(16) Citrullinated Arginine),Modification (citrullination site identified),[4],R16(Cit.)
SEQ ID NO: 154 (SPSDCCHNQCAAGCTGPRESDCLVCR; MOD_RES (18)..(18) Citrullinated Arginine; MOD_RES (26)..(26) Citrullinated Arginine),Modification (citrullination site identified),[4],R18(Cit.);; also recorded: R26(Cit.)
SEQ ID NO: 173 (TNPEDIYPSNPTDDDVSSGSSSER; MOD_RES (24)..(24) Citrullinated Arginine),Modification (citrullination site identified),[9],R24(Cit.)
SEQ ID NO: 162 (ILHNGAYSLTLQGLGISWLGLR; MOD_RES (22)..(22) Citrullinated Arginine),Modification (citrullination site identified),[7],R22(Cit.)
SEQ ID NO: 172 (DGTRYVQKGEYR; MOD_RES (4)..(4) Citrullinated Arginine; MOD_RES (12)..(12) Citrullinated Arginine),Modification (citrullination site identified),[9],R4(Cit.);; also recorded: R12(Cit.)
SEQ ID NO: 169 (GLEDQNLWHIGR; MOD_RES (12)..(12) Citrullinated Arginine),Modification (citrullination site identified),[3],R12(Cit.)
SEQ ID NO: 163 (ELGSGLALIHHNTHLCFVHTVPWDQLFR; MOD_RES (28)..(28) Citrullinated Arginine),Modification (citrullination site identified),[7],R28(Cit.)
